Results published in patent US20040235071A1, “Methods and compositions for treating cancer using 15986, 2188, 20743, 9148, 9151, 9791, 44252, 14184, 42461, 8204, 7970, 25552, 21657, 26492, 2411, 15088, 1905, 28899, 63380, 33935, 10480, 12686, 25501, 17694, 15701, 53062, 49908, 21612, 38949, 6216, 46863, 9235, 2201, 6985, 9883, 12238, 18057, …” (Millennium Pharmaceuticals, Inc., priority 2002, published 2004).
At least one structure is not confirmed: it was looked up by name or label, or the drawing left a doubt.

Key:
SGKL = conditions: cited from earlier work
44252 = test: TaqMan analysis of 44252 after PI3K inhibitor LY294002; format: cell-based, human; conditions: after 12 h; in 3/4 breast cancer cell lines evaluated
SGK2 = conditions: cited from earlier work
SGK1 = conditions: cited from earlier work
15701 mRNA = test: TaqMan PI3-kinase panel, 15701 mRNA expression; format: cell-based, human; conditions: LNCaP cells; 48 hours; 30 uM
Text: In an expanded breast cancer tissue panel, 15701 mRNA was expressed at increased levels (2-131 fold) in 14/15 primary breast tumor samples when compared to 4/4 normal breast tissue samples. In a breast cancer cell model panel, 15701 mRNA was expressed at a 4-fold increased level in transformed, activated H-ras-expressing MCF10AT01 cells vs. normal MCF10A cells, and at a 5-fold increased level in transformed, activated H-ras-expressing MCF10AT3B cells when compared to normal MCF10A cells. 15701 mRNA was expressed in many breast tumor cell lines, including MCF-7, T47D, ZR-75 and MDA-MB-468. In the PI3-kinase panel, 15701 mRNA expression was decreased in MDA-MB-468, MCF-7 and LNCaP cells after 48 hours treatment with the PI3-kinase inhibitor LY294002. 15701 mRNA expression in MDA-MB-468 cells decreased 7-fold after 48 hours with LY294002 (115 uM). […]
This example describes the TaqMan™ procedure. The Taqman™ procedure is a quantitative, reverse transcription PCR-based approach for detecting mRNA. […]
During the PCR reaction, cleavage of the probe separates the reporter dye and the quencher dye, resulting in increased fluorescence of the reporter. Accumulation of PCR products is detected directly by monitoring the increase in fluorescence of the reporter dye. When the probe is intact, the proximity of the reporter dye to the quencher dye results in suppression of the reporter fluorescence. […]

Row | SMILES | SGKL activation by hydrogen peroxide (SGKL) | 44252 expression after PI3K inhibition 44252 | SGK2 activation by hydrogen peroxide (SGK2) | SGK1 activation by hydrogen peroxide (SGK1) | 15701 mRNA expression (15701 mRNA)
1 | O=c1cc(N2CCOCC2)oc2c(-c3ccccc3)cccc12 [LY294002] | only partially inhibited | downregulated | only partially inhibited | fully inhibited | completely undetectable
2 | COC[C@H]1OC(=O)c2coc3c2[C@@]1(C)C1=C(C3=O)[C@@H]2CCC(=O)[C@@]2(C)C[C@H]1OC(C)=O [wortmannin] | only partially inhibited | – | only partially inhibited | fully inhibited | –
